Experimental data published in patent US20030219793A1.
These are yes or no findings as the source states them, for the method shown. Some binding calls cover weakened binding; strength is not graded here. Each block holds one molecule with its values, some of them ahead of it.

Tests used:
[1] = molecular target: T1, Zmax1 cytoplasmic domain bait (entire cytoplasmic domain and a portion of the transmembrane domain) (human) (UniProt O75197); assay: yeast two-hybrid screens of brain, HeLa and TE85 prey libraries
T1 sequence: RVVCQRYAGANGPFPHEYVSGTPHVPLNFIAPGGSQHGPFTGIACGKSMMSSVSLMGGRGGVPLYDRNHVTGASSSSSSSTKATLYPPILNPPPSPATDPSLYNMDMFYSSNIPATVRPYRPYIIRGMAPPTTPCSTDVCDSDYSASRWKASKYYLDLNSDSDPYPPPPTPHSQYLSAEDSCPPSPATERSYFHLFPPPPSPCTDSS

[2] = molecular target: T1, Zmax1 cytoplasmic domain bait (entire cytoplasmic domain and a portion of the transmembrane domain) (human); assay: yeast two-hybrid screen, Zmax1 cytoplasmic domain as bait; listed in Table 6 (Yeast Two Hybrid Results)
[3] = molecular target: T1, Zmax1 cytoplasmic domain bait (entire cytoplasmic domain and a portion of the transmembrane domain) (human); assay: yeast two-hybrid screens

Molecule: Axin (from UniProt O15169 1-862)
binding [1]: binds
binding [2]: binds
binding [3]: binds

Molecule: alpha-actinin (from UniProt P12814 1-892)
binding [1]: binds
binding [2]: binds
binding [3]: binds

B1: Zyxin (protein, not shown: large carriers)
chain: MAAPRPSPAISVSVSAPAFYAPQKKFGPVVAPKPKVNPFRPGDSEPPPAPGAQRAQMGRVGEIPPPPPEDFPLPPPPLAGDGDDAEGALGGAFPPPPPPIEESFPPAPLEEEIFPSPPPPPEEEGGPEAPIPPPPQPREKVSSIDLEIDSLSSLLDDMTKNDPFKARVSSGYVPPPVATPFSSKSSTKPAAGGTAPLPPWKSPSSSQPLPQVPAPAQSQTQFHVQPQPQPKPQVQLHVQSQTQPVSLANTQPRGPPASSPAPAPKFSPVTPKFTPVASKFSPGAPGGSGSQPNQKLGHPEALSAGTGSPQPPSFTYAQQREKPRVQEKQHPVPPPAQNQNQVRSPGAPGPLTLKEVEELEQLTQQLMQDMEHPQRQNVAVNELCGRCHQPLARAQPAVRALGQLFHIACFTCHQCAQQLQGQQFYSLEGAPYCEGCYTDTLEKCNTCGEPITDRMLRATGKAYHPHCFTCVVCARPLEGTSFIVDQANRPHCVPDYHKQYAPRCSVCSEPIMPEPGRDETVRVVALDKNFHMKCYKCEDCGKPLSIEADDNGCFPLDGHVLCRKCHTARAQT
binding [1]: binds
binding [2]: binds
binding [3]: binds

More lines, now with the values ahead:

binding [2]: binds
binding [3]: binds
Molecule: TRIO (GTPase) (from UniProt O75962 60-3097)

binding [1]: binds
binding [2]: binds
Molecule: cytosolic thyroid hormone-binding protein (from UniProt P14618 1-531)
